The values that follow come from PMC9996372, “Aim18p and Aim46p are chalcone isomerase domain–containing mitochondrial hemoproteins in Saccharomyces cerevisiae” (The Journal of Biological Chemistry, 2023).

Assay [1] deals with Aim46p-Nd62 (S. cerevisiae) (UniProt P38885). Put plainly: SEC; HiLoad 16/600 Superdex 75 pg column; SEC buffer 50 mM NaCl, 20 mM Hepes pH 7.5, 0.3 mM TCEP; elution volume compared with ~30 kDa proteins; both purified.
The target in assay [2] is Aim18p-Nd70 (S. cerevisiae) (UniProt P38884). The assay is described as above.

No constants are given. Whether binding was seen depends on the method and setting.

B1: Aim46p-Nd62 (domain or fragment, UniProt P38885 63-310)
chain: DDSQIKKADATSVAVDASISAFPKKMGPPQWPFSTQYELIGKGVRCVSSITFKAYGLGIYVAAEDKHLVSEVLDSKFLSQAFIDTAAPPSPENSHQDNLRAALNDPAKAPILINNLLDSGIRLMSKNTPIKAGSFKLLMDGTKKSVLKNPDSQSQDKDRLEAGFQELHDCFRSVKGLVARDDDFFIELNKDCSMNLSYYARKKDEFVILGTVKEPLIGKLLFAHYLAAVDPPSPEARKEVIDALVSLS
For B1, the binding entry in assay [1] was “no binding”.

B2: Aim18p-Nd70 (domain or fragment, UniProt P38884 71-321)
chain: RDRPVQNDDKTDAFPSHTESIQVDSSVSDFPLTITALNFPVSTTFKLLGYGQRHVTFLRFKVYALGLYLAENDENLVSDTLNETYLHKYFLDVDDSKTPKENLARLLKRDDSKSVMMIDDLLDSGMRMLAKITPVRNTDFKHLKEGLVKTISKHPDVANNKDTLAKGLSELNDAFSRKGSVRKNDDLIIELLANGALQFSYHDSKNNEFEVMGVVNNQLVGKFLFSQYLCGEKSPSPQAKKTAIDKLITLL
For the molecule B2, the binding result in assay [2] is “no binding”.
